# Test results taken from US20050164951A1, “Inhibitors for the soluble epoxide hydrolase” (The Regents of the University of California, priority 2003, published 2005).
# Some of these results come from one statement about several compounds together.
# Test system: not listed separately
# Assay: Water solubility
# Type: physicochemical
# Settings: compared with non-functionalized lipophilic inhibitors (791, 790)
row,SMILES,water solubility
1,CCCCCCCOCCNC(=O)NC12CC3CC(CC(C3)C1)C2 [Compound 866],increased their water solubility
2,CCCCCCOCCCNC(=O)NC12CC3CC(CC(C3)C1)C2 [Compound 867],increased their water solubility
3,CCCCCOCCCCNC(=O)NC12CC3CC(CC(C3)C1)C2 [Compound 868],increased their water solubility
4,CCCOCCCCCCNC(=O)NC12CC3CC(CC(C3)C1)C2 [Compound 870],increased their water solubility

# Test system: mouse and human sEH
# Assay: sEH IC50 assay, comparisons of the text made for both enzymes or without naming the enzyme
# Type: biochemical
# Settings: for both enzymes, relative to the acid 687 and aliphatic esters
# Method: Assays were performed in triplicate. […] The curve was generated from at least three separate runs, each in triplicate, to obtain the standard deviation (SD) given in Table 1 thru Table 4.
row,SMILES,reduction of activity with larger bulky ester groups
1,"O=C(NCCCCCCCCCCCC(=O)OCC12CC3CC(CC(C3)C1)C2)NC12CC3CC(CC(C3)C1)C2 [Compound 786, 1-(1-adamantyl)-3-(11-(1-adamantyl)methyloxycarbonylundecyl)urea]",1.5-3 fold
2,"O=C(NCCCCCCCCCCCC(=O)OCc1ccccc1)NC12CC3CC(CC(C3)C1)C2 [Compound 804, 1-(1-Adamantyl)-3-(11-benzyloxycarbonylundecyl)urea]",1.5-3 fold
